Data taken from patent publication US7868138B2, “Methods for generating polynucleotides having desired characteristics by iterative selection and recombination” (priority 1994, dated 2011).

Tested on: 15 kb plasmid
Test: Assembly reaction of a 15 kb plasmid with cationic detergent, colonies after electroporation
Parameters: species or system E. coli

Compound: CCCCCCCCCCCCCCCC[N+](C)(C)C.[Br-] [CTAB, cetyltrimethylammonium bromide]
- # Colonies (CTAB 30 mM): 34
- # Colonies (CTAB 100 mM): 14
- # Colonies (CTAB 300 mM): 0

Compound: C[N+](C)(C)C.[Cl-] [TMAC, tetramethylammonium chloride]
- # Colonies (TMAC 15 mM): 88
- # Colonies (TMAC 30 mM): 301
- # Colonies (TMAC 60 mM): 15
- # Colonies (TMAC 90 mM): 3
